Results published in paper PMC5327758.
Positions count from the first letter of the chain named. Names may count otherwise. No constants are given. Whether binding was seen depends on the method and setting. Binding seen in cells or lysates may run through a third protein. Some results given as binding are weak or reduced against the parent protein; the word gives no strength. For some of these results: Tags and fused reporters may be left off the sequences shown. Values belong to the binder of their own block, whether it stands above or below them.

By UniProt entry, the sequences of proteins in these tests, tags left out.
UniProt Q92831: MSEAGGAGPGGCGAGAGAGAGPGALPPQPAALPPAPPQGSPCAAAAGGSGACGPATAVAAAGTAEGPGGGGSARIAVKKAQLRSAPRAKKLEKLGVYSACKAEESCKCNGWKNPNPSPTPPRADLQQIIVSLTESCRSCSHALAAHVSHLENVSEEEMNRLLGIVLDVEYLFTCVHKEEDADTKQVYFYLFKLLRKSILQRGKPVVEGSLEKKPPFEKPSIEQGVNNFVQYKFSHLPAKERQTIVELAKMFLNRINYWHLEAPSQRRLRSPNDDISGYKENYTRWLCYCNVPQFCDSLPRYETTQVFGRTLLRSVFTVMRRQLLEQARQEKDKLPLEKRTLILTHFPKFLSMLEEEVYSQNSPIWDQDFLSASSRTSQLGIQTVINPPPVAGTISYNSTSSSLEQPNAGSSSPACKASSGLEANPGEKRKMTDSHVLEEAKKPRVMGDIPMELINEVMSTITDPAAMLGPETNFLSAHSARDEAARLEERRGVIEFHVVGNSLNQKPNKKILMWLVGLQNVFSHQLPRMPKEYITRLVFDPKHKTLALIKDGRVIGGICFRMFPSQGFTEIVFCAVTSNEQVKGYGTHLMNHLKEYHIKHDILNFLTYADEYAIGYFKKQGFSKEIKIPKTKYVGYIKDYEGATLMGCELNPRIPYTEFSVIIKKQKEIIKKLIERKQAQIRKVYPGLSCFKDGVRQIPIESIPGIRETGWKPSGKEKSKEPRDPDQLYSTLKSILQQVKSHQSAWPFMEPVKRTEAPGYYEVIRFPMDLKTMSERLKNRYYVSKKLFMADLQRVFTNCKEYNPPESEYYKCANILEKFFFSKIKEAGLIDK

Experiments:
[1] = target: WT Flag-pCAF (p300/CBP associated factor) (UniProt Q92831); assay: co-IP; COS cells cotransfected with Myc-CIITA and Flag-pCAF; lysed in 1% NP40 buffer, precleared; immunoprecipitated with anti-Flag (control Mouse IgG), immunoblotted with anti-Myc
[2] = target: WT Flag-pCAF (p300/CBP associated factor) (UniProt Q92831); assay: co-IP; COS cells cotransfected with CIITA (WT or K141R, K144R, K141/144R) and Flag-pCAF; lysed in 1% NP40 buffer, precleared; immunoprecipitated with anti-Myc or Mouse IgG, immunoblotted with anti-Myc (as the legend prints)

binding [1]: binds
B1: WT Myc-CIITA (Class II Transactivator) (protein, UniProt P33076 1-1130)
chain: MRCLAPRPAGSYLSEPQGSSQCATMELGPLEGGYLELLNSDADPLCLYHFYDQMDLAGEEEIELYSEPDTDTINCDQFSRLLCDMEGDEETREAYANIAELDQYVFQDSQLEGLSKDIFKHIGPDEVIGESMEMPAEVGQKSQKRPFPEELPADLKHWKPAEPPTVVTGSLLVGPVSDCSTLPCLPLPALFNQEPASGQMRLEKTDQIPMPFSSSSLSCLNLPEGPIQFVPTISTLPHGLWQISEAGTGVSSIFIYHGEVPQASQVPPPSGFTVHGLPTSPDRPGSTSPFAPSATDLPSMPEPALTSRANMTEHKTSPTQCPAAGEVSNKLPKWPEPVEQFYRSLQDTYGAEPAGPDGILVEVDLVQARLERSSSKSLERELATPDWAERQLAQGGLAEVLLAAKEHRRPRETRVIAVLGKAGQGKSYWAGAVSRAWACGRLPQYDFVFSVPCHCLNRPGDAYGLQDLLFSLGPQPLVAADEVFSHILKRPDRVLLILDGFEELEAQDGFLHSTCGPAPAEPCSLRGLLAGLFQKKLLRGCTLLLTARPRGRLVQSLSKADALFELSGFSMEQAQAYVMRYFESSGMTEHQDRALTLLRDRPLLLSHSHSPTLCRAVCQLSEALLELGEDAKLPSTLTGLYVGLLGRAALDSPPGALAELAKLAWELGRRHQSTLQEDQFPSADVRTWAMAKGLVQHPPRAAESELAFPSFLLQCFLGALWLALSGEIKDKELPQYLALTPRKKRPYDNWLEGVPRFLAGLIFQPPARCLGALLGPSAAASVDRKQKVLARYLKRLQPGTLRARQLLELLHCAHEAEEAGIWQHVVQELPGRLSFLGTRLTPPDAHVLGKALEAAGQDFSLDLRSTGICPSGLGSLVGLSCVTRFRAALSDTVALWESLQQHGETKLLQAAEEKFTIEPFKAKSLKDVEDLGKLVQTQRTRSSSEDTAGELPAVRDLKKLEFALGPVSGPQAFPKLVRILTAFSSLQHLDLDALSENKIGDEGVSQLSATFPQLKSLETLNLSQNNITDLGAYKLAEALPSLAASLLRLSLYNNCICDVGAESLARVLPDMVSLRVMDVQYNKFTAAGAQQLAASLRRCPHVETLAMWTPTIPFSVQEHLQQQDSRISLR

binding [2]: binds
B2: K144R CIITA (protein, UniProt P33076 1-1130)
chain: B1 chain with K144R

binding [2]: binds
B3: K141/144R CIITA (protein, UniProt P33076 1-1130)
chain: B1 chain with K141R, K144R

binding [2]: binds
B4: K141R CIITA (protein, UniProt P33076 1-1130)
chain: B1 chain with K141R
